# Among all 340,000 compounds or so, about 6,200 (1.8%) were called active. This list was built around the results that the source calls inconclusive (neither active nor inactive); the mix of calls is not that of the screen. The call rests on the fitted dose curve; in most records, active means well fitted activation curve with a large enough effect; inconclusive means small, poorly fitted or top-dose-only effect; inactive means no such curve, though single readings can be large or run the other way. Where the call is inconclusive, the potency comes from a doubtful curve fit.
# Experiment: A quantitative high throughput screen for small molecules that induce DNA re-replication in SW480 colon adenocarcinoma cells. Further: nearly all actives have a fitted effect of over 55% in size. On re-replication activation: % of control where 0% means no effect.
# Settings: Hoechst DNA content imaging, 48 h; re-replication activation: at 46.1 µM (top of the series)
# Summary of the method: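 Per well, 250 cells were exposed to pinned compound for 48 hr. Nuclear DNA was visualised with Hoechst (40 min, 37 C) and total object intensity recorded by fluorescence scanning.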
# Potency means the concentration at half of the fitted maximal effect.
Compound,Potency,re-replication activation
CC1(C)Cc2ccccc2/C(=C/C(=O)N2CCCCCC2)N1,"inconclusive: 29.1 µM [activator, single point]",
O=c1c2cc(Cl)cc(Cl)c2nc2n1CCC2,,inactive: -5.22%
O=C(N/N=C/c1c(O)ccc2ccccc12)c1ccc(Br)o1,active: 1.16 µM,
COc1ccc(NC(=O)C(CC(C)C)NC(=O)C2CCC(C)CC2)c(OC)c1 (stereo unspecified),"inconclusive: 0.651 µM [activator, full curve]",
O=C(C1CCN(S(=O)(=O)c2cccc3cccnc23)CC1)N1CCN(c2ccc(Cl)cc2)CC1,,inactive: -8.05%
OCCC1CN(Cc2cccn2-c2ccccn2)CCN1C1CCCC1 (stereo unspecified),"inconclusive: 5.62 µM [activator, single point]",
O=S(=O)(c1ccc(Br)cc1)N1CCCc2ccccc21,"inconclusive: 25.9 µM [activator, single point]",
C=C1CCN([C@@H](C)C(=O)NCc2cc(OC)c(OC)c(OC)c2)S(=O)(=O)c2ccccc21,"inconclusive: 1.16 µM [activator, single point]",
COc1ccc(Nc2ncnc3ccccc23)c(OC)c1,,inactive: -1.72%
Cn1cccc1CC(=O)NNC(=S)Nc1ccc(Cl)cc1,,inactive: -5.87%
CSCCC(=O)N(C)CC1CCN(CCc2cccc(C(F)(F)F)c2)CC1,"inconclusive: 18.4 µM [activator, partial curve, poor fit]",
O=C(N/N=C/c1ccc(Cl)c([N+](=O)[O-])c1)c1ccc2nc[nH]c2c1,,inactive: 14.1%
NC1=CC(=O)C(=O)c2ccccc21,"inconclusive: 18.4 µM [activator, single point]",
CN(CCC#N)C(=S)Nc1ccc(F)cc1,"inconclusive: 14.6 µM [activator, single point]",
CCCCOc1ccc(C(=O)NN2CCN(C)CC2)cc1,,inactive: 3.08%
COc1ccc(CC(=O)Nc2ccc(-c3cn4ccc(C)cc4n3)cc2)cc1,"inconclusive: 29.1 µM [activator, single point]",
C=CCn1c(SCC(=O)Nc2ccccc2C)nc2sc(C)c(C)c2c1=O,"inconclusive: 23.1 µM [activator, partial curve, poor fit]",
O=C(Nc1ncc(S(=O)(=O)c2ccc([N+](=O)[O-])cc2)s1)c1ccccc1F,"inconclusive: 25.9 µM [activator, single point]",
CCc1nc(N)nc2c1C(=O)CC(C)(C)C2,"inconclusive: 3.66 µM [activator, single point]",
CC(=O)Nc1c(C(=O)N2CCN(c3ccccn3)CC2)cnn1-c1ccc(C)cc1,"inconclusive: 29.1 µM [activator, single point]",
CCN(CC)CCC(c1cc(OC)c(OC)c(OC)c1)c1c(OC)cc(OC)c2ccc(=O)oc12 (stereo unspecified),,inactive: 5.88%
Nc1ccn([C@@H]2O[C@H](CO)[C@H](O)C2(F)F)c(=O)n1,"inconclusive: 23.7 µM [activator, partial curve, poor fit]",
O=C(Nc1ccccc1[N+](=O)[O-])c1cncc(Br)c1,,inactive: 4.05%
Cc1cc(C)n(-c2nc(NCCN(C)C)c3c4c(sc3n2)COC(C)(C)C4)n1,"inconclusive: 29.1 µM [activator, single point]",

Compound,Potency,re-replication activation
COc1ccccc1C(=O)NC(=O)COC(=O)C1CC2CCCC(C1)C2=O (stereo unspecified),,inactive: -1.83%
C=CCOc1ccccc1CNc1cccc(F)c1,"inconclusive: 0.259 µM [activator, full curve, poor fit]",
CC1=C(C)CS(=O)N(S(=O)(=O)c2ccc(Cl)cc2)C1 (stereo unspecified),"inconclusive: 18.4 µM [activator, single point]",
CCOC(=O)CCCc1sc(N)nc1-c1[nH]c(=O)[nH]c1C,"inconclusive: 3.66 µM [activator, single point]",
O=C(NCC(c1ccc(F)cc1)N1CCOCC1)c1ccccc1F (stereo unspecified),,inactive: -6.73%
CCc1ccc(CN2CCC(Oc3ccc(C(=O)NCc4ccccn4)cc3)CC2)o1,"inconclusive: 3.55 µM [activator, single point]",
COc1ccc(NC(=O)CSc2n[nH]c(-c3ccccn3)n2)cc1,"inconclusive: 29.1 µM [activator, single point]",
O=C(NCc1ccco1)/C(=C/c1ccc(C(F)(F)F)cc1)c1nc2ccccc2[nH]1,active: 20.6 µM,
COc1ccc(C)cc1S(=O)(=O)NC1CCCCC1C (stereo unspecified),,inactive: -2.6%
O=C(CC1SC(=Nc2ccccc2)N(Cc2ccccn2)C1=O)Nc1cccc(Cl)c1 (stereo unspecified),"inconclusive: 29.1 µM [activator, single point]",
COc1cc(C2c3cc4c(cc3C(O)C3COCC23)OCO4)cc(OC)c1OC (stereo unspecified),active: 13 µM,
O=C(C1CCCN(c2ncnc3c2nc2n3CCCCC2)C1)N1CCN(c2ccc(Cl)cc2)CC1 (stereo unspecified),"inconclusive: 29.1 µM [activator, single point]",
Cc1ccc(/C=N/n2cnc3sc4c(c3c2=O)CCCC4)o1,"inconclusive: 29.1 µM [activator, single point]",
CCCNC(=S)Nc1ccc(Oc2ccccc2)cc1,"inconclusive: 18.4 µM [activator, single point]",
COc1cc(C(=O)N/N=C/C2CC=CCC2)cc(OC)c1OC (stereo unspecified),"inconclusive: 4.11 µM [activator, full curve, poor fit]",
CN(C(=O)COC(=O)CN1C(=O)C2CC=CCC2C1=O)c1ccccc1 (stereo unspecified),"inconclusive: 16.4 µM [activator, single point]",
COc1cc(CN2CCCC(CO)(Cc3cccc(Cl)c3)C2)cc(OC)c1O (stereo unspecified),"inconclusive: 0.164 µM [activator, full curve, poor fit]",
Oc1ccccc1OCc1nc2ccccc2s1,,inactive: -8.42%
CC(=O)Nc1ccc(NC(=O)c2ccc(C)c(S(=O)(=O)Nc3cccc(C)c3)c2)cc1,,inactive: -1.42%
O=C(CN1C(=O)CSc2ncccc21)Nc1cccc(Cl)c1,"inconclusive: 3.26 µM [activator, partial curve, poor fit]",
CN(C)S(=O)(=O)c1ccc(N2CCCC2)c(C(=O)Nc2nc(-c3ccc(F)cc3)cs2)c1,"inconclusive: 4.11 µM [activator, full curve, poor fit]",
Oc1c(CN2CCN(c3ccccn3)CC2)cc(Cl)c2cccnc12,active: 7.31 µM,
COc1cccc(C2(c3cccc(OC)c3)CC2C(=O)Nc2ccccc2Cl)c1 (stereo unspecified),"inconclusive: 20.6 µM [activator, partial curve]",
CN(CC(=O)Nc1cccc(F)c1)C(=O)CCNC(=O)c1ccc(Br)cc1,"inconclusive: 23.1 µM [activator, partial curve, poor fit]",

Compound,Potency,re-replication activation
COc1ccc(Cl)cc1NC(=O)CN1CCc2ccccc21,,inactive: -17.9%
CC(=O)N1CCCc2cc(S(=O)(=O)N3CCCC(C(=O)N4CCN(c5cc(C)ccc5C)CC4)C3)ccc21 (stereo unspecified),"inconclusive: 25.9 µM [activator, single point]",
COc1cccc(C(=O)N2N=C(c3cccc(OC)c3)CC2(O)C(F)(F)F)c1 (stereo unspecified),"inconclusive: 29.1 µM [activator, single point]",
CCc1cccc(NC(=O)CCCn2c(=O)[nH]c3ccsc3c2=O)c1,,inactive: -6.05%
Cc1ccc(NC2=C(Cl)C(=O)OC2OC(=O)c2ccco2)c(C)c1 (stereo unspecified),"inconclusive: 18.4 µM [activator, single point]",
Cn1c(-c2ccccc2)cnc1NCc1ccccc1,"inconclusive: 32.6 µM [activator, single point]",
COc1ccc(Cl)cc1N(CC(=O)NC1CC2CCC1C2)S(=O)(=O)c1ccccc1 (stereo unspecified),"inconclusive: 29.1 µM [activator, single point]",
CNC(=O)/C(C#N)=C/c1c(N2CCN(C)CC2)nc2c(C)cccn2c1=O,"inconclusive: 3.26 µM [activator, full curve, poor fit]",
Cc1cccc(C(=O)N/C(=C/c2ccco2)C(=O)N2CCCCCC2)c1,"inconclusive: 20.6 µM [activator, single point]",
COc1cc(NC(=O)c2ccc(Cl)cc2Cl)ccc1NC(=O)c1cccs1,"inconclusive: 4.11 µM [activator, full curve, poor fit]",
CCOC(=O)c1ccc(S(=O)(=O)N2CC(=O)Nc3ccccc32)cc1,active: 14.6 µM,
FC(F)(F)c1cnc(/C=C/Nc2ccccc2Cl)c(Cl)c1,,inactive: -1.47%
COc1ccc(S(=O)(=O)NNC(=O)C2COc3ccccc3O2)cc1[N+](=O)[O-] (stereo unspecified),"inconclusive: 0.116 µM [activator, full curve, poor fit]",
CNc1nc(-c2ccc3c(c2)CCN3C(=O)c2cccc(F)c2)cs1,active: 14.6 µM,
O=C(Nc1cccc(-c2ccc(N3CCCCC3)nn2)c1)C(F)(F)F,,inactive: -11.1%
Cc1ccc(-n2[nH]c(C)c(/C=N/N3C(=O)c4cccc5cccc(c45)C3=O)c2=O)cc1,active: 16.4 µM,
COc1ccc(-c2nc3ncccc3o2)cc1NC(=O)c1cccs1,,inactive: 3.16%
COc1ccc(CCNC(=O)c2ccc(CNS(=O)(=O)c3ccccc3)cc2)cc1OC,,inactive: -2.21%
CC(C)(C)OC(=O)COc1cc(O)c2c(=O)cc(-c3ccccc3)oc2c1,"inconclusive: 29.1 µM [activator, single point]",
Cc1ccc(NNC(=O)c2ccno2)c(C)c1,,inactive: 11.7%
COc1ccccc1N1CCN(C(=O)COc2ccc(Cl)cc2Br)CC1,"inconclusive: 23.1 µM [activator, single point]",
COc1c(-c2ccc(O)c(O)c2)oc2cc(O)cc(O)c2c1=O,"inconclusive: 16.4 µM [activator, partial curve, poor fit]",
COc1ccc(C(CNC(=O)c2cccc(N(C)C)c2)N2CCCC2)cc1 (stereo unspecified),"inconclusive: 11.6 µM [activator, single point]",

# Whole records, quoted from the list:
# `COc1c(-c2ccc(O)c(O)c2)oc2cc(O)cc(O)c2c1=O` in the list: Potency: inconclusive: 16.4 µM [activator, partial curve, poor fit]
# `Cc1ccc(NNC(=O)c2ccno2)c(C)c1` in the list: re-replication activation: inactive: 11.7%
# `CCc1cccc(NC(=O)CCCn2c(=O)[nH]c3ccsc3c2=O)c1` in the list: re-replication activation: inactive: -6.05%
# `COc1cccc(C(=O)N2N=C(c3cccc(OC)c3)CC2(O)C(F)(F)F)c1` (stereo unspecified) in the list: Potency: inconclusive: 29.1 µM [activator, single point]

# From PubChem BioAssay AID624297 (National Center for Advancing Translational Sciences (NCATS), 2012)
